# Reference: PubChem BioAssay AID2685 (National Center for Advancing Translational Sciences (NCATS), 2010)
# Some of the results follow. Further columns of the screen follow, without active or inactive calls. The list favours compounds with an active or inconclusive main result. The note in brackets gives the kind of curve behind each potency; many fits are weak.
# Experiment: qHTS Assay for Lipid Storage Modulators in Drosophila S3 Cells;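 on cell number change: cells counted by Cell Tracker Red CMTPX staining in the red channel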
# Details: BODIPY lipid droplet fluorescence, 18-24 h; for cell number change: measured here: cell count max response, cells fed with added oleic acid
# In short: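 Drosophila S3 cells loaded with oleic acid (400 uM, as added) and compounds at several concentrations; lipid droplets imaged by 488-nm laser-scanning cytometry, 500–530 nm intensity and object ratio to cell channel. Percent activity normalized to 20 uM Triacsin C.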
# [1] = measured here: lipid fluorescence (Fed channel) AC50, cells fed with added oleic acid
# [2] = measured here: cell number channel AC50, cells fed with added oleic acid
Structure (SMILES),cell number change [%],AC50 [1],AC50 [2]
CCOc1ccc(S(=O)(=O)N2CCC(C(=O)NC3CCCC3)CC2)cc1,5.49,"1.84 µM [rising, partial curve, poor fit]",–
COc1cc(/C=N/NC(=O)NC23CC4CC(CC(C4)C2)C3)ccc1OCC(N)=O,-5.56,"0.103 µM [rising, full curve]",–
Cc1nc(N2CCc3ccccc3C2)[nH]c(=O)c1Cc1ccccc1,5.53,–,–
Cc1cccc(C(=O)NC(=S)Nc2ccc(S(=O)(=O)N3CCN(C)CC3)cc2)c1,28.8,–,"0.58 µM [rising, full curve, poor fit]"
Cc1ccc(-c2noc(CCCC(=O)NC3CCCC3)n2)cc1,2.86,–,–
CC1(c2ccc3ccccc3c2)NC(=O)NC1=O (stereo not drawn),11.7,"29.1 µM [falling, single point]",–
COC(=O)[C@@]12CCCCN1[C@H](c1ccc(-c3ccc(F)cc3)c(OC)c1)[C@@H]1C(=O)N(C)C(=O)[C@@H]12,-37.7,"29.1 µM [falling, single point]","23.1 µM [falling, single point]"
CCc1noc(C)c1C(=O)Nc1nc2ccc(OC)cc2s1,12.2,–,–
Cc1cc2cc(CNC(=O)c3ccc4c(c3)OCO4)ccc2n1C,–,"2.06 µM [rising, partial curve]","2.06 µM [rising, partial curve]"
Cc1ccc(CN2CCNC(=O)C2CC(=O)NCc2cc(C)n(C)n2)cc1 (stereo not drawn),-0.269,"23.1 µM [rising, single point]",–
CN(C)CCOC(=O)c1cccc(Br)c1,-8.98,–,–
CCOc1ccc(N(CC(=O)N/N=C/c2cc([N+](=O)[O-])ccc2Cl)S(C)(=O)=O)cc1,18.7,–,–
COc1cccc(C(=O)NC2CC3CCCC(C2)N3CC(=O)Nc2ccccc2C(F)(F)F)c1 (stereo not drawn),46.1,–,"32.6 µM [rising, single point]"
Cc1nc(NC(=O)c2ccccc2[N+](=O)[O-])sc1C(=O)N(C)C,-2.61,"4.11 µM [falling, full curve]",–
COc1ccc(CC(=O)Nc2nc3ccccc3s2)cc1S(=O)(=O)N1CCOCC1,-4.27,"1.46 µM [rising, partial curve, poor fit]",–
COC(CNC(=O)C1CCN(S(=O)(=O)c2cccc3nsnc23)CC1)OC,-13.3,–,–
COc1ccc(Cn2c(SCC(=O)NCc3ccco3)nc3ccsc3c2=O)cc1,26.6,"1.3 µM [rising, full curve]","0.731 µM [rising, full curve, poor fit]"
C=CCn1c(SCC#N)nc2ccccc2c1=O,-20.5,"29.1 µM [rising, single point]",–
Cc1ccc(C(c2c(C)[nH][nH]c2=O)c2c(C)[nH][nH]c2=O)cc1[N+](=O)[O-],2.96,"0.366 µM [falling, single point]",–
Cc1cccc(NS(=O)(=O)c2ccc(C)c(C(=O)NCCCN3CCOCC3)c2)c1,1.39,"6.51 µM [rising, single point]",–
O=C(CSc1n[nH]c(-c2ccccc2Br)n1)NCCN1C(=O)CSC1=O,-36.9,"16.4 µM [falling, partial curve]","11.6 µM [falling, partial curve]"

Structure (SMILES),cell number change [%],AC50 [1],AC50 [2]
CC(C)CC1C(C#N)=C(N)OC2=C1C(=O)CC(c1ccccc1)C2 (stereo not drawn),–,"0.00517 µM [falling, full curve]","0.411 µM [falling, full curve, poor fit]"
CCCOc1ccc(C(=O)CCN2CCCCC2)cc1,-32.7,"14.6 µM [falling, single point]","13 µM [falling, partial curve]"
O=C(COC(=O)c1ccccc1F)Nc1ccc2c(c1)OCCO2,-5.22,–,–
N#Cc1cnc(N)c(Br)c1,6.72,"0.00461 µM [falling, full curve, poor fit]",–
CC1CN(c2ccc(NS(=O)(=O)c3ccccc3)cc2C(=O)O)CC(C)O1 (stereo not drawn),–,"0.731 µM [rising, full curve, poor fit]",–
Cc1ccc(-n2c(=O)c3sccc3n(CC(=O)NCc3ccco3)c2=O)cc1,66.4,–,"16.4 µM [rising, partial curve]"
Cc1ccccc1CN(C)Cc1cc(=O)oc2c(C)c(C)ccc12,6.72,–,–
O=C(Cn1nc(-c2ccc(Cl)cc2)ccc1=O)NCCN1CCOCC1,2.28,"23.1 µM [falling, single point]",–
COc1cccc(NC(=O)c2cnc(SC)nc2)c1,-17.8,"13 µM [falling, partial curve]",–
O=C(COc1ccc2ccc(=O)oc2c1)Nc1ccc(N2CCCCC2)cc1,17.2,–,"0.366 µM [falling, single point]"
Cc1ccc(NC(=O)NNC(=O)c2snnc2C)cc1,-24.3,"6.51 µM [rising, single point]","2.91 µM [rising, single point]"
CCn1c(C(=O)N2CCC(C(=O)N3CCN(c4ccccn4)CC3)CC2)cc2sccc21,–,"6.51 µM [rising, single point]","2.06 µM [rising, partial curve, poor fit]"
CCOc1ccccc1NC(=O)C(NCCc1ccc(OC)cc1)c1ccccc1 (stereo not drawn),24.9,–,–
FC(F)(F)C1=CC(c2ccc(Br)cc2)=NCCN1,-29.9,–,"3.26 µM [falling, full curve, poor fit]"
CC(=C/c1ccc(C(C)C)cc1)/C=N/NC(=O)Cn1nc(C)cc1C,-22.6,"32.6 µM [falling, single point]",–
Cc1nnc(N/N=C/c2ccc(Br)cc2)n1N,-2.92,"20.6 µM [falling, single point]",–
O=C1NC(=O)c2cc(Oc3ccc([N+](=O)[O-])cc3)ccc21,2.75,"6.51 µM [rising, single point]",–
O=C(c1ccccc1Cc1ccccc1)N1CCN(S(=O)(=O)c2ccccc2[N+](=O)[O-])CC1,-34.4,"23.1 µM [falling, single point]","29.1 µM [falling, single point]"
CCCCc1oc2c(c(=O)c1C)C(=O)CC(c1ccccc1)C2 (stereo not drawn),–,"1.46 µM [rising, full curve]","1.16 µM [rising, full curve]"
COc1ccc(N(CC(=O)NCCSCc2ccc(Cl)cc2)S(C)(=O)=O)cc1Cl,-49.9,"29.1 µM [falling, single point]","18.4 µM [falling, partial curve]"
NC(=O)Nc1ccccc1C(=O)N1CCC(O)(c2ccc(Cl)cc2)CC1,-10.8,"6.51 µM [falling, single point]",–

# Taken from above:
# cell number change [%] with `CCOc1ccccc1NC(=O)C(NCCc1ccc(OC)cc1)c1ccccc1` (stereo not drawn) is entered as 24.9
# AC50 [2] with `Cc1ccc(-n2c(=O)c3sccc3n(CC(=O)NCc3ccco3)c2=O)cc1` is entered as 16.4 µM [rising, partial curve]
# AC50 [1] with `CCCCc1oc2c(c(=O)c1C)C(=O)CC(c1ccccc1)C2` (stereo not drawn) is entered as 1.46 µM [rising, full curve]
# AC50 [2] with `CC(C)CC1C(C#N)=C(N)OC2=C1C(=O)CC(c1ccccc1)C2` (stereo not drawn) is entered as 0.411 µM [falling, full curve, poor fit]
# cell number change [%] with `Cc1ccccc1CN(C)Cc1cc(=O)oc2c(C)c(C)ccc12` is entered as 6.72

# Following part:

Structure (SMILES),cell number change [%],AC50 [1],AC50 [2]
COC(=O)c1cc(N2CCNCC2)nc2ccccc12,5.87,–,–
Cc1cccc(NC(=O)COc2nsnc2N2CCOCC2)c1,31,–,"7.31 µM [rising, partial curve]"
O=C(Nc1cc(=O)[nH]c2ncnn12)c1ccccc1Cl,4.61,"0.00517 µM [rising, full curve]",–
O=C(NCCNC(=O)c1ccc(Cl)cc1Cl)c1cnccn1,-34.2,"35.5 µM [falling, single point]","29.1 µM [falling, single point]"
COc1ccccc1NC(=O)CN1CCN(CC(=O)Nc2ccc3c(c2)OCO3)CC1,-15.9,–,–
O=C(/C=C/c1ccc(F)cc1)NC(=S)N1CCCCC1c1cccnc1 (stereo not drawn),11.2,"0.058 µM [rising, full curve, poor fit]",–
CCOC(=O)C1CCN(C(=O)COC(=O)COc2ccc(Cl)cc2)CC1,70.6,–,"1.64 µM [rising, full curve]"
Cc1ccc2c(c1)-c1cc(C)nn1C(c1ccc3c(c1)OCO3)N2 (stereo not drawn),–,"1.46 µM [rising, partial curve]","0.731 µM [rising, single point]"
Cc1ccc(C(=O)NC(=S)Nc2cccc(NC(=O)c3ccccc3Cl)c2)cc1[N+](=O)[O-],-9.84,"2.91 µM [falling, full curve]","6.51 µM [falling, single point]"
CC1=CC(=NOC(=O)c2cccc([N+](=O)[O-])c2)C=C(C)C1=O,17,"1.64 µM [falling, partial curve]","0.164 µM [falling, full curve]"
COc1ccc(OC)c(Nc2nc(N)c([N+](=O)[O-])c(NC3CCCCC3)n2)c1,4.5,"6.51 µM [falling, partial curve, poor fit]",–
CC1(C)CC(=O)C2=C(C1)N(c1ccc(F)cc1)C(=O)CC2c1ccccc1 (stereo not drawn),–,"29.1 µM [rising, single point]",–
CC(=O)c1cccc(Nc2ncnc3ccc(Br)cc23)c1,-20.2,–,–
COc1cc(SC)ccc1C(=O)NCCNC(=O)c1nonc1N,-24.4,–,–
Cc1ccccc1NC(=S)Nc1ccccn1,0.179,"0.116 µM [rising, full curve, poor fit]",–
CC(Oc1ccccc1)C(=O)N1CCc2ccccc2C1 (stereo not drawn),4.76,–,–
Cc1ccn2cc(C(=O)Nc3ccccc3N3CCOCC3)nc2c1,-3.19,"3.26 µM [rising, partial curve]",–
COc1ccc(C(=O)NC(=S)NCc2ccco2)cc1OC,52.4,–,"29.1 µM [rising, single point]"
O=C(NCCS(=O)(=O)N1CCN(c2ccccc2)CC1)c1cccs1,-17.9,"4.11 µM [falling, full curve]",–
CC(=O)N1CCN=C1SCc1cccc(Cl)c1,10.8,–,"0.517 µM [rising, single point]"
